# Assay results reported in patent publication US20030104507A1, “Method for detection of ATP” (priority 2001, published 2003).
# The source gives many values for each of these; only a part stands here.
# Tested on: Jurkat cells
# Assay: Effect of NaF on Jurkat cell luminescence
# Assay type: cell-based
# Conditions: 10.0 mM NaF, without KPO4, 50000 cells/well
# Description: In some cells, such as lymphoid cells (e.g., Jurkat), an increase in luminescence over time in the presence of the reagent composition solution is observed. While the underlying mechanism of this increase in luminescence is not known, it is postulated that it results from the functioning of ATP-generating enzymes in this cell. The activity of such enzymes, if left unchecked, will result in an over-estimation of ATP in a sample at the time of the assay. This experiment was designed to test the effects of sodium fluoride on luminescence when using lymphoid cells.
# Jurkat cells (ATCC, CRL-1990) were grown in 5% CO2/95% air, 100% humidity at 37° C. and maintained in RPMI media (Sigma, R-8005) containing 10% FBS (Hyclone #SH30070), 1X non-essential amino acids (Hyclone SH30238) and 1 mM sodium pyruvate (Hyclone #SH30239). Cells were plated at 0, 12500, 25000, and 50000 cells/well in 100 μl of media in a 96-well microtiter luminometer plate. Quadruplicate replicates were prepared. To each of these wells was added reagent composition (reagent composition=40 mM Citrate buffer (pH 6.0), 110 mM MES buffer (pH 6.0), 0.2 mM EDTA, 0.2% Gelatin, 100 μg/ml Luciferase (LucPpe2m146, diluted from 37.8 mg/ml stock solution), 100 μM luciferin, 300 mM NaCl, 20 mM MgSO4, 0.05% Mazu DF-204, 0.6% DTAB). In addition, all but the “no KPO4” control sample contained 60 mM KPO4 buffer (pH 6.0). Various concentrations of NaF were then added to the above solution to final concentrations of 0, 1.0, 2.0, 4.0, 10.0 mM; one condition had 10.0 mM NaF but without KPO4.
# Total reaction volume per well was 200 μl, consisting of 100 μl cells plus media and 100 μl reagent composition containing KPO4 and/or NaF. The light output was taken at various times on a Dynex microtiter plate luminometer at a 0.5 second read time. The resulting average rlus from quadruplicate wells and calculated signal stabilities as measured by their half-life values are reported in Table S.
compound,measurement,setting,value
"[F-].[Na+] [NaF, sodium fluoride]",Average rlu,85 min,1340.91 rlu
same,Average rlu,130 min,1258.88 rlu
same,Average rlu,220 min,889.88 rlu
same,Average rlu,255 min,865.24 rlu
same,Average rlu,285 min,807.41 rlu
